PubChem BioAssay AID1508600 (Functional Genomics Laboratory (NCATS/FGL), 2020)
The campaign covered roughly 53,000 sequences. About 3,700 (7%) were called active.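 The calls were made as follows: active = gene knockdowns whose robust z-score for IL-1 alpha signal is at least 2 or at most -2, so actives lie on both sides; inactive = the rest.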 The list shows a part of the results.

Test: Components of the Cytosolic LPS Sensing Pathway: Gene Identification via Genome-wide siRNA Screen;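 also: robust z of the log signal after scaling to non-targeting control siRNA wells of the plate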
Conditions: RAW264.7 macrophages, IL-1a HTRF, actives lie on both sides, screened at 100 nM (by protocol), cells primed 5 h with Pam3CSK4 first
Method in brief: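 Supernatant IL-1a by HTRF from RAW264.7 cells primed with Pam3CSK4 (5 hours) and transfected with LipidA (24 hour) after 48h siRNA knockdown at 100 nM; cell viability checked with CellTiter-Glo.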
For GUACUCUUCCUCACUGGGUTT against Tmem198, the z-score was inactive: 1.21.
With GGUUAAAAGACUGAAUGAATT against Rabep2 the z-score was inactive: 0.134.
With GGAUGAUUGUGUUUCGACUTT against Stoml1 the z-score was inactive: 0.0827.
With GGAUGAAGAGACUAAAAAUTT against Il23a the z-score was inactive: 0.922.
With GCGAUGAUGAAAGCUCAGUTT against Atad1 the z-score was active: -2.36.
With GCUAUCAAGGGCAUGAUCCTT against Gabra3 the z-score was inactive: -0.89.
With GCGGCAAGUAUUAUUAUCATT against Cbx4 the z-score was inactive: -1.58.
In the case of AGAGAGAUAUUGUUCAUCATT against Psg22, the z-score is reported as inactive: 0.11.
For GGAAAAACAGUUCUUGGAGTT against Apeh, the z-score was inactive: 0.466.
With CCUGAUUAUUCUGAGAAAUTT against Adsl the z-score was inactive: 1.
With CGGGAAUCCUCUGAAUUAATT against Pycr2 the z-score was inactive: 0.297.
With GGGAUCGAAUGGUUCAGGUTT against Osbpl9 the z-score was inactive: 0.646.
In the case of GCAGGUAGCUAAAGAAAACTT against Rangrf, the z-score is reported as inactive: 0.831.
In the case of GCAAACCACUUACACUAAUTT against Spry4, the z-score is reported as inactive: -0.201.
In the case of CCAGUCGACUACUAUGCCATT against Sstr1, the z-score is reported as inactive: -0.161.
For GGACGUAUAUCCUUUUAUGTT against Spaar, the z-score was inactive: -0.151.
For GGCAACCCUGAAGACAGCUTT against Cys1, the z-score was inactive: 0.516.
With “GGCUGUGAUUGGCAAUCUATT against 6430548M08Rik” the z-score was active: -3.04.
With GGCAUUUUUACAGACCAGCTT against Apoc2 the z-score was inactive: -0.734.
With GGUCUGAGCUCUCAAAAUGTT against Neurod4 the z-score was inactive: -0.137.
For GGAUUAAAGGGUAACUUAGTT against Ccdc121, the z-score was inactive: 0.441.
With CCAAAAGACCAUUGUCGUCTT against Nmrk1 the z-score was inactive: 0.443.
For GGAAGAUGAAAUCUUCAAATT against Lysmd1, the z-score was inactive: -0.244.
With “GCGCAAAGGUGAAACGUAGTT against E030011O05Rik” the z-score was inactive: -0.17.
For GCUACCUGUGCAAGUGAACTT against Selenoh, the z-score was inactive: -0.402.
For CGGCUUCUUAGGAAACUCUTT against Olfr358, the z-score was inactive: -0.369.
With GCCUUUAAGAAGUUGAUGCTT against Olfr1015 the z-score was inactive: -0.0711.
In the case of GGUUGAUUACAGCAUCGGGTT against Cops7a, the z-score is reported as inactive: -0.466.
In the case of GGGUUCGAGGAAAAGGAAGTT against Acsf3, the z-score is reported as inactive: 0.65.
In the case of GGUUAAGCAGGAAAACAAGTT against Pygb, the z-score is reported as inactive: -1.07.
With CGAAUUUGUAACACAUGGUTT against Tmeff1 the z-score was inactive: 1.41.
In the case of GGAGAAAGAAGGGAUUCUCTT against Ensa, the z-score is reported as inactive: 0.419.
With GGAACAGUUACGAAAAGUGTT against Vps37c the z-score was inactive: -1.03.
With CCAACUGGCAUUUGAUGUGTT against Mical2 the z-score was inactive: -0.16.
For GGAUCCUGGUCCAAACUUUTT against Atraid, the z-score was inactive: -1.52.
For “GGUGUAUUCCAGUUACAAATT against 2610002M06Rik”, the z-score was inactive: 0.422.
In the case of GGUCCUAGGCCGAUUCGAUTT against Gpsm1, the z-score is reported as inactive: 0.877.
For CCUUUUCCCUAAUACGUAUTT against Pcyt1a, the z-score was inactive: -0.25.
In the case of GCUAUGAUGUAGCCAGGACTT against Trnau1ap, the z-score is reported as inactive: -0.265.
In the case of CGAGUGUGAUACGUACUUCTT against Jag1, the z-score is reported as inactive: -0.46.
For GCCCAUUAUAGGAAAGAACTT against Rhox12, the z-score was inactive: 0.27.
With GGAAGAAGAAGAGAGAGAATT against Ccdc148 the z-score was inactive: -1.92.
For UAGCACCAUUUUUCAGAACTT against Ascc1, the z-score was inactive: 0.283.
For CCUUUGAGACAACCAGUCCTT against Entpd2, the z-score was inactive: 1.31.
In the case of GGGCGACACAAGGUUUUUGTT against Kif3a, the z-score is reported as active: 2.61.
For UCAGAACCAUUUCUGUGCGTT against Pou4f1, the z-score was inactive: 0.137.
For CGAGAAUGUGUCUUCUUUATT against Trpm8, the z-score was inactive: -0.0999.
In the case of GAAUGCGGCUGUAUGAGAATT against Crygc, the z-score is reported as inactive: 0.404.
For GGAGUGACUAACCCUCUAGTT against Ccnk, the z-score was inactive: -0.529.
With GGAAUAUGCUGCAAAAAUCTT against Camk2g the z-score was inactive: -1.58.
With GGUUGCCAAUGACACUCGGTT against Trak2 the z-score was inactive: -0.342.
With GGCUAGUACCAACAUGACCTT against Doxl1 the z-score was inactive: 1.14.
With CGAGAACUUAAAAUGGGAATT against Cd3e the z-score was inactive: -0.475.
